# Library screen at single concentrations

Protein sequences, listed by entry. Tags and fused reporters are not part of them.
UniProt I6X8D2, whole entry: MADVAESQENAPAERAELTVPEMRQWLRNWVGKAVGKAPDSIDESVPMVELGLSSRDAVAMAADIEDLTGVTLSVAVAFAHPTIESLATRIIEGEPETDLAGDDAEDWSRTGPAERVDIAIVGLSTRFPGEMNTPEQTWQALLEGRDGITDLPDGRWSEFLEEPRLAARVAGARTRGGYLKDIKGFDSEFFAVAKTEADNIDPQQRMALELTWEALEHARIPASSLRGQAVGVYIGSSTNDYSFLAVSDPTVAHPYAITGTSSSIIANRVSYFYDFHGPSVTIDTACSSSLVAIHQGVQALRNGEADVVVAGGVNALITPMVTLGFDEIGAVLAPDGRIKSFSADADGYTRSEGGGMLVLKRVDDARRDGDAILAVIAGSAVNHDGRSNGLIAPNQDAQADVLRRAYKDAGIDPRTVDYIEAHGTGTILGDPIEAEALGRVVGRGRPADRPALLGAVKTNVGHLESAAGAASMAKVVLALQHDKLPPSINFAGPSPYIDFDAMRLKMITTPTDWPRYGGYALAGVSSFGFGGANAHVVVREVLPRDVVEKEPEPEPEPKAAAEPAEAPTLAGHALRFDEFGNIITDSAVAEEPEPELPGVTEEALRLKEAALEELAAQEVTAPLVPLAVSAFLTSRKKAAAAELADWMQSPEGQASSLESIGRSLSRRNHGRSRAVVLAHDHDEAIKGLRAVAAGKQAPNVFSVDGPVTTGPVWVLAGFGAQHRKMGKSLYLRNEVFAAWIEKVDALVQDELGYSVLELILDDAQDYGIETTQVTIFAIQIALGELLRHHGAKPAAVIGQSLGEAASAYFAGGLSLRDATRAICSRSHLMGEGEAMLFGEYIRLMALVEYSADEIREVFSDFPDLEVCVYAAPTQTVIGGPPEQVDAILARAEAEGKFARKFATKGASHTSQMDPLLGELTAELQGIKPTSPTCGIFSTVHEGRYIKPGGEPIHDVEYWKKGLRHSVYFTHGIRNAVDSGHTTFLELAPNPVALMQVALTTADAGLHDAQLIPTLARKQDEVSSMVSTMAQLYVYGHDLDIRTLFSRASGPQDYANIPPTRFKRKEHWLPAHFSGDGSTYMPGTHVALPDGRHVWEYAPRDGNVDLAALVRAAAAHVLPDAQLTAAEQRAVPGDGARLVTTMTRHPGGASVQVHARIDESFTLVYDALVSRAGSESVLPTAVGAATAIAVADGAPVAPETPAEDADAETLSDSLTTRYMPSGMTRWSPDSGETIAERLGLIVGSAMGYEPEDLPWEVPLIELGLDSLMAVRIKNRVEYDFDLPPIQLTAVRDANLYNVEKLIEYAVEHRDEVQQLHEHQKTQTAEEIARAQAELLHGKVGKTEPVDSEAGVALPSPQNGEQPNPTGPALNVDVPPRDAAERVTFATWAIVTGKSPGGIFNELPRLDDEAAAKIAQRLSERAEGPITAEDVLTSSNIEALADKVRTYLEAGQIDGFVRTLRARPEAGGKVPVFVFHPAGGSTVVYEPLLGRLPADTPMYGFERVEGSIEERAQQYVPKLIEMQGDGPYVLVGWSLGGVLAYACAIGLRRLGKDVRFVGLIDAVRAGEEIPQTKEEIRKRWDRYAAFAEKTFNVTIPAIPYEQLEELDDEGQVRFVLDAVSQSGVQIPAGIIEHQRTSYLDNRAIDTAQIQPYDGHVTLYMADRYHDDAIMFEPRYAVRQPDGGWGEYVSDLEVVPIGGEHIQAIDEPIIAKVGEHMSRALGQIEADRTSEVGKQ
UniProt P9WNZ1, whole entry: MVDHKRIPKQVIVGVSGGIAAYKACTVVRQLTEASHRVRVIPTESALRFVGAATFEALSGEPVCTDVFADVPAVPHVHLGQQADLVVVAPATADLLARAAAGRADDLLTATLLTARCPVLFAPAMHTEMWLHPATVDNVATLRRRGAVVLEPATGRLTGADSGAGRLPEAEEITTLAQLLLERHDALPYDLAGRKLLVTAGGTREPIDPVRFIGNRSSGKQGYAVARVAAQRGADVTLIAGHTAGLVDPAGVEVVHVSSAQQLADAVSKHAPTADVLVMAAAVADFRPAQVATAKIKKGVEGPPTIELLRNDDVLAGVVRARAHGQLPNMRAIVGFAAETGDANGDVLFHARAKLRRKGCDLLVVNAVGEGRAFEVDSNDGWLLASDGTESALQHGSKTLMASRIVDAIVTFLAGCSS
UniProt P9WPC5, whole entry: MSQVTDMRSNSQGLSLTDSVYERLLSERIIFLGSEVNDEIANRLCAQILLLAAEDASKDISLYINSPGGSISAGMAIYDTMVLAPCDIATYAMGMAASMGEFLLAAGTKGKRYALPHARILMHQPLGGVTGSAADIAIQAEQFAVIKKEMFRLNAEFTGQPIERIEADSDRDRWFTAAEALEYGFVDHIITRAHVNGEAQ
UniProt P9WPC3, whole entry partner: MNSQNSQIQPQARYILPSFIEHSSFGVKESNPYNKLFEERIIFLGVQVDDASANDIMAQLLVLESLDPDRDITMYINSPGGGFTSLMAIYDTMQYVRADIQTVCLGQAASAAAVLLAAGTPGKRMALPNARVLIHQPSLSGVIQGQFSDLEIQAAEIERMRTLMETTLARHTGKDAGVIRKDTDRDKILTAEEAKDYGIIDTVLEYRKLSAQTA
UniProt P9WFT3, whole entry: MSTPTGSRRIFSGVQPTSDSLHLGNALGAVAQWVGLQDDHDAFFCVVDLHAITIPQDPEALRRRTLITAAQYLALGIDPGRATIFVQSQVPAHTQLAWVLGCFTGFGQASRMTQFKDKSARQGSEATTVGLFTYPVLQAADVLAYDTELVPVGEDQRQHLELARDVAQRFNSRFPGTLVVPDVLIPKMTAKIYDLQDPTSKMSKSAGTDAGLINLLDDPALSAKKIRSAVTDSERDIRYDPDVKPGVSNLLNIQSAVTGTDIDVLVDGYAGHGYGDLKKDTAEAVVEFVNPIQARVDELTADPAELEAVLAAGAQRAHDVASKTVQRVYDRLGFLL

The values are deposited in ChEMBL (CHEMBL3988442, “University of Dundee, Small-Polar-MMV Screening Library” (2021)).

The filed quantity is “Percent Effect” (%). The record does not define 0% and 100%; most values in the screen are far below 50% and negative numbers occur (in some assays of this library far below -100). Compounds were drawn at random from those tested, without regard to their results.

A: 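Polyketide synthase Pks13, Mycobacterium tuberculosis (UniProt I6X8D2). Enzyme assay of the thioesterase domain of polyketide synthase 13; the read-out is not stated. Concentration: 30 µM. Higher reads as stronger inhibition (inferred from which compounds were picked for retests). Of about 67,000 compounds tested this way, about 300 (0.46%) reached 50% or more in at least one test.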
B: 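Assay of Toxoplasma gondii numbers, read through their beta-galactosidase reporter with a colour substrate. Compounds at 10 µM. The record gives no direction; the compounds picked for IC50 retests had high values, so higher reads as fewer parasites. About 67,000 compounds were tested under these conditions; 0.38% (about 260) showed 50% or more at least once.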
C: 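Coenzyme A biosynthesis protein CoaBC, Mycobacterium tuberculosis (UniProt P9WNZ1). Enzyme assay of CoaBC with a phosphate dye (Biomol Green) read at 650 nm. Compounds at 30 µM. Direction is inferred from only a few compounds that gave an IC50; most scored high, so higher reads as stronger inhibition. Most strong results did not repeat in a second test. Of about 67,000 compounds tested this way, about 40 (0.06%) reached 50% or more in at least one test.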
D: 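Protease assay of ClpP1P2, read by the AMC dye that it sets free. Target: ClpP1P2, Mycobacterium tuberculosis (UniProt P9WPC5 and UniProt P9WPC3). Concentration: 50 µM. Higher reads as stronger inhibition, judged from the few compounds that gave an IC50. Most other retested compounds had strongly negative values. About 69,000 compounds were tested under these conditions; 0.015% (about 10) showed 50% or more at least once.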
E: 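Cell assay of Leishmania donovani living inside macrophages; the read-out is not stated. Concentration: 30 µM. Higher reads as stronger inhibition (inferred: compounds with an IC50 in retests scored well above the rest). Of about 69,000 compounds tested this way, about 1,000 (1.5%) reached 50% or more in at least one test.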
F: 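Tryptophan-tRNA ligase, Mycobacterium tuberculosis (UniProt P9WFT3). Enzyme assay of tryptophanyl-tRNA synthetase; the read-out is not stated. Compounds at 10 µM. Direction is not recorded; retested compounds ran higher, which suggests that high means inhibition. About 65,000 compounds were tested under these conditions; 0.098% (about 64) showed 50% or more at least once.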

COc1ccc(NC(=O)C2CC(=O)n3cnnc3S2)cc1 (stereo not drawn) gave A: -103%; B: 10.66%; C: 0.9434%; D: 3.064%; E: -11.03%; F: -2.925%. For O=C(CO[C@@H]1CC[C@H]2[C@H]1OCCN2c1ncccn1)N1CCCC1 the result was A: -31.26%; C: 4.44%; D: -1.279%; F: -2.607%. Result for CC/C=C(/C)C(=O)N1CSCC1C(=O)N(C)CCc1ccncc1 (stereo not drawn) was A: 12.54%; B: 3.953%; C: 0.9724%; D: 0.2938%; E: -1.526%; F: -5.436%. Result for OCC(O)CSCc1nnc(-c2cccc(F)c2)o1 (stereo not drawn) was A: -22.65%; B: 1.826%; D: 4.112%; E: 1.951%; F: -2.89%. CCn1cnnc1C1CCN(C(=O)c2ccccc2F)CC1 gave A: -6.431%; B: 5.602%; C: 1.161%; D: -1.112%; E: 4.088%; F: -1.363%.

With CS(=O)(=O)c1ccc(C(=O)N2CCCC(n3cncn3)C2)o1 (stereo not drawn) the screen gave A: -23.13%; B: 9.856%; C: -7.233%; D: 11.77%; E: -48.05%; F: -1.004%. Result for CN1CCOC(CNCCOc2cccc(C#N)c2)C1 (stereo not drawn) was A: -19.22%; B: -3.87%; C: -17.83%; D: -3.736%; E: 25.34%; F: -2.347%. CC(C)(C)c1nc(CNc2ccccc2SCCC(N)=O)cs1 gave A: 6.99%; B: 8.907%; C: 1.921%; D: -9.445%; E: -34.53%; F: -0.2571%. With COCCC(C)NC(=O)N1CCC(n2ccc(C(F)(F)F)n2)CC1 (stereo not drawn) the screen gave A: -12.77%; B: -3.806%; C: 1.665%; D: -8.986%; E: 11.08%; F: 6.298%. CNC(=O)C1Cn2ccnc2C2(CCN(C(=O)NC3CCCC3)CC2)O1 (stereo not drawn) gave A: -9.46%; B: -13.18%; C: -0.9877%; D: -1.025%; E: 12.33%.

For COC(=O)CCNC(=O)c1cc(Br)c2c(c1)OCCO2 the result was A: -18.6%; C: 2.583%; D: -11.91%; E: 23.01%; F: -1.916%. With O=C(CN1CCN(CCO)CC1)NCc1ccc(Cl)s1 the screen gave A: -12.71%; B: -55%; C: -1.72%; D: -10.44%; E: 13.08%; F: 3.974%. Cc1nnc(CCNC(=O)C2CC(=O)N(C(C)(C)C)C2)s1 (stereo not drawn) gave A: -1.706%; B: 20.62%; C: 3.415%; D: -28.74%; E: 16.85%; F: 2.859%. CN1Cc2nc[nH]c2C[C@H]1C(=O)NC1CCCCC1 read A: 5.582%; B: -7.799%; C: 3.837%; D: -12.56%; E: -2.083%; F: -3.991%.

2 of the entries, repeated:

| SMILES | A | B | C | D | E | F |
|---|---|---|---|---|---|---|
| `CC(C)(C)c1nc(CNc2ccccc2SCCC(N)=O)cs1` | 6.99% | 8.907% | 1.921% | -9.445% | -34.53% | -0.2571% |
| `CN1CCOC(CNCCOc2cccc(C#N)c2)C1` (stereo not drawn) | -19.22% | -3.87% | -17.83% | -3.736% | 25.34% | -2.347% |